A short description of the assay: qHTS Assay for Lipid Storage Modulators in Drosophila S3 Cells.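 As to cell number change: cells counted by Cell Tracker Red CMTPX staining in the red channel.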 As to conditions: BODIPY lipid droplet fluorescence, 18-24 h; for cell number change: measured here: cell count max response, cells fed with added oleic acid. An outline of the steps:
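Laser-scanning cytometry quantifies lipid droplet accumulation (500–530 nm total intensity; droplet/cell object ratio) in oleic acid-fed (400 uM added) Drosophila S3 cells treated with a concentration series. 20 uM Triacsin C defined 100% inhibition.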
On the technique in general: qHTS replaces the single test concentration by a dilution series.

Setting [1] is: measured here: cell number channel AC50, cells fed with added oleic acid.
The mark [2] stands for this setting: measured here: lipid fluorescence (Fed channel) AC50, cells fed with added oleic acid.

In general, AC50 refers to the midpoint of the concentration-response curve, whichever way the signal moves.

Some of the results follow. Further columns of the screen follow, without active or inactive calls. The list favours compounds with an active or inconclusive main result. Potencies come from curve fits of mixed quality, noted in brackets.

As to `CCOC(=O)C1(C)NC(c2cccs2)C2C(=O)N(c3ccccc3)C(=O)C21` (configuration not stated), the cell number change is 3.76%. In addition, the AC50 under setting [1] was 2.91 µM [rising, single point]. In addition, the AC50 under setting [2] is 0.651 µM [rising, partial curve, poor fit].
On to `CN(C)c1ccc(C(=O)Nc2cc(C(F)(F)F)ccc2-n2cncn2)cc1`, for which the cell number change worked out at 49.6%. In addition, under setting [1], the AC50 is 10.3 µM [rising, partial curve, poor fit]. Also, the AC50 under setting [2] was 0.116 µM [rising, full curve, poor fit].
As for `O=C(OCc1cc(=O)n2cc(Br)ccc2n1)c1ccc(Cl)c(S(=O)(=O)NCc2ccccc2)c1`, the cell number change was -49.6%. For the same compound, the AC50 under setting [1] is 29.1 µM [falling, single point]. In addition, the AC50 under setting [2] is 0.00517 µM [falling, full curve, poor fit].
For `COC(=O)CCCN1C(=O)c2cccc3cccc(c23)C1=O`, the cell number change is -20.1%. Besides, the half-maximal activity concentration (AC50) under setting [2] was 0.58 µM [falling, single point].
For `Cc1ccc(O)c(-c2cc(C(=O)NCc3ccc4c(c3)OCO4)[nH]n2)c1`, the cell number change is 32.1%. For the same compound, the AC50 under setting [1] was 23.1 µM [rising, single point]. Under setting [2], the AC50 was 20.6 µM [rising, partial curve].
For `O=c1oc(-c2ccccc2)nc2c1C1(CCCCC1)Cc1ccccc1-2`, the cell number change came out at 14.8%. The AC50 under setting [2] was 0.058 µM [rising, partial curve, poor fit].
Regarding `CCc1nc(N2CCCC2)c(C#N)c2c1CCCC2`, the cell number change was determined as 31.1%. Further, the half-maximal activity concentration (AC50) under setting [1] was 29.1 µM [rising, single point].
Consider `O=C(Nc1ccc2c(c1)OCCO2)C1CCC1`, for which the cell number change was 7.54%.
As to `O=S(=O)(c1ccc2c(c1)OCCO2)N1CCN(c2nc(-c3cccnc3)nc3ccccc23)CC1`, the cell number change came out at 79.1%. The AC50 under setting [1] is 6.51 µM [falling, partial curve, poor fit].
Turning to `Cc1ccccc1OC(=O)c1cccc(S(=O)(=O)N2CCN(C)CC2)c1`, the cell number change is 33.8%. Further, the AC50 under setting [1] is 14.6 µM [rising, partial curve, poor fit].
For the compound `COC(=O)c1ccc(C)c(NC(=O)CN(c2cc(OC)ccc2OC)S(C)(=O)=O)c1`, the cell number change came to 16.5%. For the same compound, the AC50 under setting [1] is 0.326 µM [rising, single point]. Under setting [2], the AC50 was 0.366 µM [rising, full curve].
Take `Cc1ccc2c(CN3CCC(C)CC3)cc(=O)oc2c1`: the cell number change is 21.1%. Further, the AC50 under setting [2] is 0.206 µM [rising, full curve, poor fit].
In the case of `OC1C2(Cc3ccccc3)CN3CCN(C2)CC1(Cc1ccccc1)C3` (configuration not stated), the cell number change is -15.5%. For the same compound, under setting [1], the AC50 was 0.13 µM [falling, full curve, poor fit]. In addition, the AC50 under setting [2] was 6.51 µM [falling, single point].
Turning to `Brc1ccc(-c2nnc3ccc(N4CCN(c5ccccc5)CC4)nn23)cc1`, the cell number change was -22%. Also, the AC50 under setting [2] was 0.651 µM [falling, full curve, poor fit].
In the case of `CN(CC(=O)Nc1ccccc1Cl)C(=O)c1ccc(-c2cccc(C(F)(F)F)c2)o1`, the cell number change is 141%. The AC50 under setting [1] is 23.1 µM [rising, partial curve].
With `NS(=O)(=O)c1ccc(S(=O)(=O)N2CCN(C3CCCC3)CC2)cc1`, the cell number change is -6.96%. For the same compound, under setting [2], the AC50 was 0.731 µM [rising, partial curve, poor fit].
Regarding `Cc1ccccc1N(CC(=O)N/N=C/c1ccccc1Cl)C(=O)c1ccccc1`, the cell number change was found to be 58.5%. Besides, under setting [1], the AC50 is 29.1 µM [rising, single point].
As for `Cc1nc(NC(=O)c2ccccc2)sc1-c1csc(Nc2ccc(Cl)cc2)n1`, the cell number change is -28.8%. The concentration at half-maximal activity (AC50) under setting [2] was 8.2 µM [falling, partial curve].
On to `CC(C)c1ccc(-n2cccc2/C=C2/C(=N)N3C=CSC3=NC2=O)cc1`, for which the cell number change is 24.4%. For the same compound, the AC50 under setting [2] is 8.2 µM [rising, partial curve].
As to `O=C(Nc1cccc(Br)c1)/C(=C\c1cccnc1)NC(=O)c1ccco1`, the cell number change turned out to be 7.14%. Moreover, under setting [2], the AC50 was 16.4 µM [rising, single point].
With `Cc1cc(C)n2nc(SCC(=O)N(C)C3CCCCC3)nc2n1`, the AC50 is 6.51 µM [rising, single point] under setting [1] and 7.31 µM [falling, single point] under setting [2].
Turning to `Cc1ccc(-c2noc(C3CCCN(C(=O)c4cccc([N+](=O)[O-])c4)C3)n2)o1` (configuration not stated), the cell number change was -10.5%.
Regarding `CCOc1ccc(OCC)c(NC(=O)C2CCCN(S(=O)(=O)c3c(C)n[nH]c3C)C2)c1` (configuration not stated), the cell number change stood at 11%. Moreover, the AC50 under setting [1] is 0.116 µM [rising, full curve].
As for `CCc1ccc2c(c1)CCCN2C(=O)c1ccccc1C(=O)O`, the cell number change came out at 3.74%. Besides, under setting [2], the concentration at half-maximal activity (AC50) was 0.13 µM [falling, partial curve, poor fit].
As for `CCCc1cc(C(=O)NC2CCCCC2)no1`, the AC50 is, setting by setting: under setting [1], 6.51 µM [rising, single point]; under setting [2], 6.51 µM [rising, partial curve, poor fit].
As to `CCNc1nc(OCCNS(=O)(=O)c2cc(C)ccc2C)nc(N(C)C)n1`, the cell number change is -3.31%. The AC50 under setting [2] was 5.8 µM [rising, full curve].
As for `O=C(Nc1ccc(S(=O)(=O)N2CCCCC2)cc1)C1CCCCC1`, the cell number change is -12.4%.
Take `Brc1ccc(-c2nn3c(-c4ccncc4)nnc3s2)o1`: the cell number change was -19.1%.
Consider `C/C(CC(=O)Nc1ccc2c(c1)OCCO2)=N\NC(=O)COc1ccc(Cl)c(C)c1`, for which the cell number change worked out at 1.53%. Also, the AC50 under setting [2] is 29.1 µM [rising, single point].
In the case of `Cc1ccc(C2C3CN(C(C)C)CC=C3C(C#N)=C(N)C2(C#N)C#N)cc1` (configuration not stated), the AC50 under setting [1] was 0.164 µM [rising, full curve, poor fit] and the AC50 under setting [2] is 0.164 µM [rising, full curve, poor fit].
With `Cc1cccc(N2CCN(C(=O)C3CCN(S(=O)(=O)c4c(C)noc4C)CC3)CC2)c1C`, the AC50 under setting [2] is 29.1 µM [rising, single point].
On to `O=C(O)Cc1ccc(NC(=O)c2ccc(NC(=O)C3CC3)cc2)cc1`, for which the cell number change is -5.44%.
Consider `Cc1cc2oc(=O)cc(CN3CCc4ccccc43)c2cc1Cl`, for which the cell number change was 13.9%. In addition, the AC50 under setting [2] was 0.82 µM [rising, partial curve].
`CS(=O)(=O)N1CCC(C(=O)Nc2cccc([N+](=O)[O-])c2)CC1`: the cell number change is -4.87%. The concentration at half-maximal activity (AC50) under setting [2] was 0.1 µM [falling, full curve, poor fit].
For `O=C1CCCN1CCC1CCN(C2CC(=O)N(c3ccc(Cl)cc3)C2=O)CC1` (configuration not stated), the cell number change was -38.4%. The AC50 under setting [1] was 29.1 µM [falling, single point]. Besides, the AC50 under setting [2] was 0.58 µM [falling, single point].
As to `O=C(CSc1nnc(NC(=O)C2CC(=O)N(c3ccccc3)C2)s1)NC1CCCC1` (configuration not stated), the cell number change was 3%.

These data come from PubChem BioAssay AID2685 (National Center for Advancing Translational Sciences (NCATS), 2010).
